The list shows a part of the results. Single values are uncertain, as repeats are few or missing.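 Cells were imaged in 1,536-well plates, and nuclei stained with an antibody against cleaved PARP were counted against all DNA-stained nuclei to give the apoptosis fraction. Screening doses were chosen to leave most cells alive, and resting and induced cleaved-PARP levels differ strongly between cell lines.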
What was measured:
Assay in all cases: cleaved PARP positive nuclei fraction relative to DMSO control; melanoma cells; higher = more apoptosis
Conditions in all cases: library dose: low library concentration; 72 h
501Mel = system: 501Mel
A101D = system: A101D
A2058 = system: A2058
A375 = system: A375
C32 = system: C32
CBRC008 = system: CBRC008 (line from a melanoma biopsy)
CBRC014 = system: CBRC014 (line from a melanoma biopsy)
CBRC016 = system: CBRC016 (line from a melanoma biopsy)
CBRC017 = system: CBRC017 (line from a melanoma biopsy)
CBRC034 = system: CBRC034 (line from a melanoma biopsy)
COLO792 = system: COLO792
COLO800 = system: COLO800
COLO829 = system: COLO829
G361 = system: G361
IPC-298 = system: IPC-298
IST-MEL1 = system: IST-MEL1
LB2518-MEL = system: LB2518-MEL
LOXIMVI = system: LOXIMVI
MEL-HO = system: MEL-HO

Row | SMILES | cleaved PARP positive nuclei fraction (501Mel) [%] | cleaved PARP positive nuclei fraction (A101D) [%] | cleaved PARP positive nuclei fraction (A2058) [%] | cleaved PARP positive nuclei fraction (A375) [%] | cleaved PARP positive nuclei fraction (C32) [%] | cleaved PARP positive nuclei fraction (CBRC008) [%] | cleaved PARP positive nuclei fraction (CBRC014) [%] | cleaved PARP positive nuclei fraction (CBRC016) [%] | cleaved PARP positive nuclei fraction (CBRC017) [%] | cleaved PARP positive nuclei fraction (CBRC034) [%] | cleaved PARP positive nuclei fraction (COLO792) [%] | cleaved PARP positive nuclei fraction (COLO800) [%] | cleaved PARP positive nuclei fraction (COLO829) [%] | cleaved PARP positive nuclei fraction (G361) [%] | cleaved PARP positive nuclei fraction (IPC-298) [%] | cleaved PARP positive nuclei fraction (IST-MEL1) [%] | cleaved PARP positive nuclei fraction (LB2518-MEL) [%] | cleaved PARP positive nuclei fraction (LOXIMVI) [%] | cleaved PARP positive nuclei fraction (MEL-HO) [%]
1 | O=c1[nH]nc(Sc2ncc([N+](=O)[O-])s2)n1-c1ccc2c(c1)OCCO2 + Nc1cccc2c1CN(C1CCC(=O)NC1=O)C2=O [lenalidomide] (first compound 0.2 µM, partner dose 1 µM) | 83.2 | 95.3 | 76 | 114 | 76.7 | 48.7 | 105 | 150 | 124 | 63.5 | 100 | 78.5 | 132 | 86 | 120 | 60.4 | 182 | 52.6 | 23.7
2 | COc1cc([C@@H]2c3cc4c(cc3[C@@H](O[C@@H]3O[C@@H]5CO[C@@H](C)O[C@H]5[C@H](O)[C@H]3O)[C@H]3COC(=O)[C@H]23)OCO4)cc(OC)c1O [etoposide] + OCc1c[nH]c2ccccc12 [Indole-3-carbinol] (first compound 0.02 µM, partner dose 0.8 µM) | 65.1 | 182 | 21.8 | 86.6 | 162 | 61.9 | 80.9 | 80.4 | 82.1 | 94.2 | 34.8 | 51.8 | 41.4 | 101 | 137 | 68.3 | 116 | 153 | 62.9
3 | O=c1[nH]nc(Sc2ncc([N+](=O)[O-])s2)n1-c1ccc2c(c1)OCCO2 + C=CCNC1=C2C[C@@H](C)C[C@H](OC)[C@H](O)[C@@H](C)/C=C(\C)[C@H](OC(N)=O)[C@@H](OC)/C=C\C=C(/C)C(=O)NC(=CC1=O)C2=O [Tanespimycin] (first compound 0.2 µM, partner dose 0.002 µM) | 88.1 | 198 | 126 | 88.8 | 185 | 334 | 178 | 86.2 | 118 | 70.2 | 55.6 | 86.1 | 112 | 141 | 43.5 | 165 | 135 | 77.5 | 109
4 | CC[C@]1(O)C[C@H]2CN(CCc3c([nH]c4ccccc34)[C@@](C(=O)OC)(c3cc4c(cc3OC)N(C=O)[C@H]3[C@@](O)(C(=O)OC)[C@H](OC(C)=O)[C@]5(CC)C=CCN6CC[C@]43[C@@H]65)C2)C1 [vincristine] + NC1(c2ccc(-c3nc4ccn5c(=O)[nH]nc5c4cc3-c3ccccc3)cc2)CCC1 [MK2206] (first compound 0.0001 µM, partner dose 0.4 µM) | 93.1 | 283 | 671 | 315 | 137 | 164 | 88.1 | 125 | 104 | 59.9 | 158 | 179 | 145 | 96.1 | 168 | 68.3 | 84.1 | 237 | 116
5 | O=C(/C=C/c1cccnc1)NCCCCC1CCN(C(=O)c2ccccc2)CC1 + C[C@@H](N)c1ccc(C(=O)Nc2ccnc3[nH]ccc23)cc1 [RKI983] (first compound 0.01 µM, partner dose 0.4 µM) | 115 | 117 | 118 | 224 | 94.8 | 8500 | 104 | 932 | 628 | 1100 | 1540 | 200 | 328 | 4090 | 1200 | 71.8 | 111 | 237 | 196
6 | COc1cc([C@@H]2c3cc4c(cc3[C@@H](O[C@@H]3O[C@@H]5CO[C@@H](C)O[C@H]5[C@H](O)[C@H]3O)[C@H]3COC(=O)[C@H]23)OCO4)cc(OC)c1O [etoposide] + O=C(O)c1ccc2c(c1)nc(Nc1cccc(Cl)c1)c1ccncc12 [CX4945] (first compound 0.02 µM, partner dose 0.4 µM) | 59.2 | 81.1 | 91.6 | 154 | 149 | 86.7 | 106 | 160 | 223 | 26.8 | 77.6 | 65.7 | 93.3 | 164 | 99.6 | 117 | 118 | 47.9 | 94.9
7 | CCCCCCCCCCCCCCCCCCOP(=O)([O-])OC1CC[N+](C)(C)CC1 [Perifosine] + Cn1nnc2c(C(N)=O)ncn2c1=O [temozolomide] (first compound 0.4 µM, partner dose 2 µM) | 69.1 | 43.9 | 98.3 | 110 | 76.4 | 132 | 114 | 84.3 | 111 | 32.1 | 58.8 | 104 | 119 | 57.3 | 88.9 | 130 | 49.3 | 219 | 81
8 | O=c1[nH]nc(Sc2ncc([N+](=O)[O-])s2)n1-c1ccc2c(c1)OCCO2 + Cc1cn(-c2cc(NC(=O)c3ccc(C)c(Nc4nccc(-c5cccnc5)n4)c3)cc(C(F)(F)F)c2)cn1 [nilotinib] (first compound 0.2 µM, partner dose 0.2 µM) | 136 | 299 | 124 | 61.8 | 92.9 | 195 | 85.4 | 185 | 108 | 57.8 | 79.7 | 67.9 | 31.4 | 70.7 | 123 | 267 | 38.9 | 54.5 | 26.5
9 | Cc1cn(-c2cc(NC(=O)c3ccc(C)c(Nc4nccc(-c5cccnc5)n4)c3)cc(C(F)(F)F)c2)cn1 [nilotinib] + CC(C)C[C@H](NC(=O)[C@H](Cc1ccccc1)NC(=O)c1cnccn1)B(O)O [Bortezomib] (first compound 0.2 µM, partner dose 0.001 µM) | 169 | 130 | 132 | 162 | 71 | 166 | 119 | 146 | 137 | 121 | 85 | 179 | 207 | 212 | 200 | 129 | 92.9 | 124 | 63.8
10 | O=c1[nH]nc(Sc2ncc([N+](=O)[O-])s2)n1-c1ccc2c(c1)OCCO2 + CCN(CC)CCNC(=O)c1c(C)[nH]c(/C=C2\C(=O)Nc3ccc(F)cc32)c1C [sunitinib] (first compound 0.2 µM, partner dose 0.4 µM) | 78.8 | 177 | 172 | 221 | 81.6 | 173 | 95.7 | 242 | 111 | 61.8 | 89.6 | 228 | 104 | 50.9 | 86 | 305 | 109 | 63 | 202
11 | O=c1[nH]nc(Sc2ncc([N+](=O)[O-])s2)n1-c1ccc2c(c1)OCCO2 + NC1(c2ccc(-c3nc4ccn5c(=O)[nH]nc5c4cc3-c3ccccc3)cc2)CCC1 [MK2206] (first compound 0.2 µM, partner dose 0.4 µM) | 108 | 151 | 83.9 | 209 | 152 | 45.8 | 98 | 101 | 92.3 | 36.2 | 191 | 54.4 | 49.4 | 169 | 87.7 | 163 | 100 | 190 | 65.5
12 | N#CC[C@H](C1CCCC1)n1cc(-c2ncnc3[nH]ccc23)cn1 [ruxolitinib] + O=C(Nc1cc(C(F)(F)F)cc(C(F)(F)F)c1)c1cc(Cl)ccc1O [IMD0354] (first compound 1 µM, partner dose 0.016 µM) | 102 | 36 | 129 | 251 | 61.9 | 186 | 94.2 | 154 | 99.2 | 134 | 173 | 96.5 | 38.4 | 160 | 182 | 69 | 134 | 125 | 82.7
13 | Cc1cc(Nc2cc(N3CCN(C)CC3)nc(Sc3ccc(NC(=O)C4CC4)cc3)n2)n[nH]1 [Tozasertib] + COc1ccc(C2=N[C@@H](c3ccc(Cl)cc3)[C@@H](c3ccc(Cl)cc3)N2C(=O)N2CCNC(=O)C2)c(OC(C)C)c1 [Nutlin-3] (first compound 0.006 µM, partner dose 0.1 µM) | 57.5 | 193 | 102 | 61.4 | 89.7 | 87.3 | 80.4 | 91.7 | 125 | 122 | 82.4 | 79.6 | 119 | 115 | 50.9 | 113 | 62.6 | 57.5 | 111
14 | CCCCCCCCCCCCCCCCCCOP(=O)([O-])OC1CC[N+](C)(C)CC1 [Perifosine] + NC1(c2ccc(-c3nc4ccn5c(=O)[nH]nc5c4cc3-c3ccccc3)cc2)CCC1 [MK2206] (first compound 0.4 µM, partner dose 0.4 µM) | 112 | 101 | 228 | 138 | 81.3 | 90.4 | 95.9 | 73.8 | 125 | 49 | 119 | 117 | 68 | 111 | 90.5 | 130 | 157 | 201 | 182
15 | COc1cc([C@@H]2c3cc4c(cc3[C@@H](O[C@@H]3O[C@@H]5CO[C@@H](C)O[C@H]5[C@H](O)[C@H]3O)[C@H]3COC(=O)[C@H]23)OCO4)cc(OC)c1O [etoposide] + Clc1ccc(Nc2nnc(Cc3ccncc3)c3ccccc23)cc1 [vatalanib] (first compound 0.02 µM, partner dose 2 µM) | 99.9 | 86.7 | 198 | 177 | 80.2 | 94.6 | 86.2 | 86 | 243 | 120 | 61.4 | 149 | 88.8 | 73.7 | 56.5 | 59.9 | 50.8 | 171 | 50.9

Reprinted: entries 9 to 11
Row | SMILES | cleaved PARP positive nuclei fraction (501Mel) [%] | cleaved PARP positive nuclei fraction (A101D) [%] | cleaved PARP positive nuclei fraction (A2058) [%] | cleaved PARP positive nuclei fraction (A375) [%] | cleaved PARP positive nuclei fraction (C32) [%] | cleaved PARP positive nuclei fraction (CBRC008) [%] | cleaved PARP positive nuclei fraction (CBRC014) [%] | cleaved PARP positive nuclei fraction (CBRC016) [%] | cleaved PARP positive nuclei fraction (CBRC017) [%] | cleaved PARP positive nuclei fraction (CBRC034) [%] | cleaved PARP positive nuclei fraction (COLO792) [%] | cleaved PARP positive nuclei fraction (COLO800) [%] | cleaved PARP positive nuclei fraction (COLO829) [%] | cleaved PARP positive nuclei fraction (G361) [%] | cleaved PARP positive nuclei fraction (IPC-298) [%] | cleaved PARP positive nuclei fraction (IST-MEL1) [%] | cleaved PARP positive nuclei fraction (LB2518-MEL) [%] | cleaved PARP positive nuclei fraction (LOXIMVI) [%] | cleaved PARP positive nuclei fraction (MEL-HO) [%]
9 | Cc1cn(-c2cc(NC(=O)c3ccc(C)c(Nc4nccc(-c5cccnc5)n4)c3)cc(C(F)(F)F)c2)cn1 [nilotinib] + CC(C)C[C@H](NC(=O)[C@H](Cc1ccccc1)NC(=O)c1cnccn1)B(O)O [Bortezomib] (first compound 0.2 µM, partner dose 0.001 µM) | 169 | 130 | 132 | 162 | 71 | 166 | 119 | 146 | 137 | 121 | 85 | 179 | 207 | 212 | 200 | 129 | 92.9 | 124 | 63.8
10 | O=c1[nH]nc(Sc2ncc([N+](=O)[O-])s2)n1-c1ccc2c(c1)OCCO2 + CCN(CC)CCNC(=O)c1c(C)[nH]c(/C=C2\C(=O)Nc3ccc(F)cc32)c1C [sunitinib] (first compound 0.2 µM, partner dose 0.4 µM) | 78.8 | 177 | 172 | 221 | 81.6 | 173 | 95.7 | 242 | 111 | 61.8 | 89.6 | 228 | 104 | 50.9 | 86 | 305 | 109 | 63 | 202
11 | O=c1[nH]nc(Sc2ncc([N+](=O)[O-])s2)n1-c1ccc2c(c1)OCCO2 + NC1(c2ccc(-c3nc4ccn5c(=O)[nH]nc5c4cc3-c3ccccc3)cc2)CCC1 [MK2206] (first compound 0.2 µM, partner dose 0.4 µM) | 108 | 151 | 83.9 | 209 | 152 | 45.8 | 98 | 101 | 92.3 | 36.2 | 191 | 54.4 | 49.4 | 169 | 87.7 | 163 | 100 | 190 | 65.5
